No constants are given. Whether binding was seen depends on the method and setting. In cells and extracts the contact can be indirect. Binding can be weak; no strength is given. For part of these data: Where a sequence is shown, tags or fusion partners need not be part of it.

Chains of the proteins cited; added tags and fusions are not shown. Lines headed by an entry give the natural chain unless they say otherwise; changes in a name come on top.
UniProt Q9UKI8: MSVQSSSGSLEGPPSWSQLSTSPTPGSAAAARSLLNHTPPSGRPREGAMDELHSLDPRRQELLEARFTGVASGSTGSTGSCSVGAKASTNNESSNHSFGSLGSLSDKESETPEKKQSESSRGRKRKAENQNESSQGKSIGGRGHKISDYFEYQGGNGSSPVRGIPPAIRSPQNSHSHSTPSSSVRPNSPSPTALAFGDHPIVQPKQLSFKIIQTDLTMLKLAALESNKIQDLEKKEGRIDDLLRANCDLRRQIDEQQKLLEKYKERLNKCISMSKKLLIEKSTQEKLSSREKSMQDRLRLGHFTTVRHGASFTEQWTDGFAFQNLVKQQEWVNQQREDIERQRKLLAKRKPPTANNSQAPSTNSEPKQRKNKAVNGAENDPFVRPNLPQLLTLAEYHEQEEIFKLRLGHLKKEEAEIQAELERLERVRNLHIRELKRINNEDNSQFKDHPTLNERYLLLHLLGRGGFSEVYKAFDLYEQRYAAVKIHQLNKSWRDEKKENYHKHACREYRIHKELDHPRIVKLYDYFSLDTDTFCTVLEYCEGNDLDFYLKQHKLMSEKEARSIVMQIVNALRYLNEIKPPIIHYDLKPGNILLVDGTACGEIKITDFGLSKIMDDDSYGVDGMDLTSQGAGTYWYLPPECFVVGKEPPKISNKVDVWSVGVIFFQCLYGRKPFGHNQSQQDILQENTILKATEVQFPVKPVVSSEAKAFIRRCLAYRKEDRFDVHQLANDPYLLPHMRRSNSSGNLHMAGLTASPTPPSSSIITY

Test [1] concerns the target Recombinant 6X-His-human TLK1 kinase domain (TLK1B) (human) (UniProt Q9UKI8). The experiment in a line: co-IP; recombinant proteins; Protein A/G PLUS agarose coated with anti-TLK1 or IgG isotype antibody; 0.5 μg of TLK1B and of RAD54 or RAD51 in 200 μl PBS + 0.1% Tween20, BSA added, 2 h at 4°C; western blot of supernatant and eluate; both purified. For orientation: In western blotting, separated proteins are transferred to a membrane and probed.

The target is the same in test [2]. The experiment in a line: pull-down; HIS-TLK1B on Ni-NTA beads incubated with HeLa cell lysate; RAD54 probed by immunoblotting; only the target purified.

B1: His6-Thioredoxin-RAD54-Flag (recombinant human RAD54, wild type) (enzyme, UniProt Q92698 1-747)
chain: MRRSLAPSQLAKRKPEGRSCDDEDWQPGLVTPRKRKSSSETQIQECFLSPFRKPLSQLTNQPPCLDSSQHEAFIRSILSKPFKVPIPNYQGPLGSRALGLKRAGVRRALHDPLEKDALVLYEPPPLSAHDQLKLDKEKLPVHVVVDPILSKVLRPHQREGVKFLWECVTSRRIPGSHGCIMADEMGLGKTLQCITLMWTLLRQSPECKPEIDKAVVVSPSSLVKNWYNEVGKWLGGRIQPLAIDGGSKDEIDQKLEGFMNQRGARVSSPILIISYETFRLHVGVLQKGSVGLVICDEGHRLKNSENQTYQALDSLNTSRRVLISGTPIQNDLLEYFSLVHFVNSGILGTAHEFKKHFELPILKGRDAAASEADRQLGEERLRELTSIVNRCLIRRTSDILSKYLPVKIEQVVCCRLTPLQTELYKRFLRQAKPAEELLEGKMSVSSLSSITSLKKLCNHPALIYDKCVEEEDGFVGALDLFPPGYSSKALEPQLSGKMLVLDYILAVTRSRSSDKVVLVSNYTQTLDLFEKLCRARRYLYVRLDGTMSIKKRAKVVERFNSPSSPDFVFMLSSKAGGCGLNLIGANRLVMFDPDWNPANDEQAMARVWRDGQKKTCYIYRLLSAGTIEEKIFQRQSHKKALSSCVVDEEQDVERHFSLGELKELFILDEASLSDTHDRLHCRRCVNSRQIRPPPDGSDCTSDLAGWNHCTDKWGLRDEVLQAAWDAASTAITFVFHQRSHEEQRGLR
In the case of B1, the binding entry in test [1] is listed as “binds”.

B2: endogenous RAD54 of HeLa cells (enzyme, UniProt Q92698 1-747)
chain: MRRSLAPSQLAKRKPEGRSCDDEDWQPGLVTPRKRKSSSETQIQECFLSPFRKPLSQLTNQPPCLDSSQHEAFIRSILSKPFKVPIPNYQGPLGSRALGLKRAGVRRALHDPLEKDALVLYEPPPLSAHDQLKLDKEKLPVHVVVDPILSKVLRPHQREGVKFLWECVTSRRIPGSHGCIMADEMGLGKTLQCITLMWTLLRQSPECKPEIDKAVVVSPSSLVKNWYNEVGKWLGGRIQPLAIDGGSKDEIDQKLEGFMNQRGARVSSPILIISYETFRLHVGVLQKGSVGLVICDEGHRLKNSENQTYQALDSLNTSRRVLISGTPIQNDLLEYFSLVHFVNSGILGTAHEFKKHFELPILKGRDAAASEADRQLGEERLRELTSIVNRCLIRRTSDILSKYLPVKIEQVVCCRLTPLQTELYKRFLRQAKPAEELLEGKMSVSSLSSITSLKKLCNHPALIYDKCVEEEDGFVGALDLFPPGYSSKALEPQLSGKMLVLDYILAVTRSRSSDKVVLVSNYTQTLDLFEKLCRARRYLYVRLDGTMSIKKRAKVVERFNSPSSPDFVFMLSSKAGGCGLNLIGANRLVMFDPDWNPANDEQAMARVWRDGQKKTCYIYRLLSAGTIEEKIFQRQSHKKALSSCVVDEEQDVERHFSLGELKELFILDEASLSDTHDRLHCRRCVNSRQIRPPPDGSDCTSDLAGWNHCTDKWGLRDEVLQAAWDAASTAITFVFHQRSHEEQRGLR
As for B2, the binding result in test [2] is listed as “binds”.

B3: recombinant human RAD51 (natural protein, UniProt Q06609 1-339, looked up)
chain: MAMQMQLEANADTSVEEESFGPQPISRLEQCGINANDVKKLEEAGFHTVEAVAYAPKKELINIKGISEAKADKILAEAAKLVPMGFTTATEFHQRRSEIIQITTGSKELDKLLQGGIETGSITEMFGEFRTGKTQICHTLAVTCQLPIDRGGGEGKAMYIDTEGTFRPERLLAVAERYGLSGSDVLDNVAYARAFNTDHQTQLLYQASAMMVESRYALLIVDSATALYRTDYSGRGELSARQMHLARFLRMLLRLADEFGVAVVITNQVVAQVDGAAMFAADPKKPIGGNIIAHASTTRLYLRKGRGETRICKIYDSPCLPEAEAMFAINADGVGDAKD
notes: human RAD51 recombinase; also called rc-RAD51
B3: in test [1], the binding entry is given as “no binding (tested: 0.5 μg of each protein in 200 μl)”.

Source of the values: PMC10484734, “TLK1-mediated RAD54 phosphorylation spatio-temporally regulates Homologous Recombination Repair” (Nucleic Acids Research, 2023).
